Laboratory results reported in PubChem BioAssay AID743255 (National Center for Advancing Translational Sciences (NCATS), 2014).
Screen size: about 390,000 compounds; about 910 (0.23%) were called active. Inconclusive results, whose numbers are uncertain, are shown with a selection of clear calls. Calls follow the shape of the dose curve; as a rule, active = well fitted inhibition curve with a large enough effect; inconclusive = small, poorly fitted or top-dose-only effect; inactive = no such curve, though single readings can be large or run the other way. Potencies beside an inconclusive call are fits to weak or partial responses and may not hold up.

The chains behind the UniProt entries cited, without tags or fusion partners. Where a name states a change or a piece, a line headed by the entry shows the natural chain unless it says otherwise.
UniProt O94782: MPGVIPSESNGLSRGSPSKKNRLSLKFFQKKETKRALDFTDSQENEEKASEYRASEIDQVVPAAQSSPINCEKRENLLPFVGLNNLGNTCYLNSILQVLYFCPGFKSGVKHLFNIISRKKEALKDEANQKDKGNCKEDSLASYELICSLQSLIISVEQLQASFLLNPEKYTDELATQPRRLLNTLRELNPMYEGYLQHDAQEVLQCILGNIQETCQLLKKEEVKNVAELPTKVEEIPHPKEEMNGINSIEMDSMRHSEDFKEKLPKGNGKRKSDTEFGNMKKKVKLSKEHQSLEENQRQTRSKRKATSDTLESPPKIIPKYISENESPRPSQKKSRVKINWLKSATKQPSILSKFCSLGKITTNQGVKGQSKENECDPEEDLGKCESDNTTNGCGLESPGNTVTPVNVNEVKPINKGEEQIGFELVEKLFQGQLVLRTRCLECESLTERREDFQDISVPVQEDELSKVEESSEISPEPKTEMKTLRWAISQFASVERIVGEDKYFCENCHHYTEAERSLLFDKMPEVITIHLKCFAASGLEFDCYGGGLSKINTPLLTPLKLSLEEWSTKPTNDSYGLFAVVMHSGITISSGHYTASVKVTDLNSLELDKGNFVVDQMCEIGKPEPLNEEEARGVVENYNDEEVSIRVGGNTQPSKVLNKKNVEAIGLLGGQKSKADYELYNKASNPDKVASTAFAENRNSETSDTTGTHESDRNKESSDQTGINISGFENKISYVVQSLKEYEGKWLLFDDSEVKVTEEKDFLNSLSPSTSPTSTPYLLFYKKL

Biological target: Ubiquitin carboxyl-terminal hydrolase 1 (Homo sapiens) (UniProt O94782)
Experiment: Inhibitors of USP1/UAF1: Primary Screen; also: nearly all actives have a fitted effect of over 60% in size
Conditions: recombinant USP1/UAF1, Ub-Rhodamine cleavage fluorescence; series mostly up to 57.1 µM
In short: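 In this screen, compounds sit with the deubiquitinase complex (1nM) for 15 min at room temperature before Ub-Rho is added at 150nM final. Fluorescence rise is then followed for 6 reads every 60 seconds.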
Potency is read from the fitted curve at half-maximal effect.

Compound | Potency
CN(C)NC(=S)Nc1ccc2nc(-c3ccccn3)c(-c3ccccn3)nc2c1 | inactive
Cc1ccc(-c2nnc(Nc3ccc(CC(N)=O)cc3)c3ccccc23)cc1 | inconclusive: 7.08 µM [inhibitor, single point]
Cc1ccc([C@H]2C[C@H](n3cc(COC(=O)c4ccccc4)nn3)[C@@H](O)CN2C(=O)c2cccs2)cc1 | inconclusive: 89.1 µM [inhibitor, partial curve]
C=CS(=O)(=O)c1c2cc(OC)ccc2nc2ccc(OC)cc12 | inconclusive: 44.7 µM [inhibitor, partial curve]
CCCS(=O)(=O)c1c(S(=O)(=O)CCC)c2cc(-c3ccncc3)ccn2c1C(=O)OC | inactive
CSc1nsc(/C=C/Nc2ccc(O)cc2C)c1C#N | inconclusive: 35.5 µM [inhibitor, partial curve]
O=C1CN(C(=O)Cc2ccccc2)C(c2ccc(F)cc2)c2cc(Br)ccc2N1 (configuration not stated) | inconclusive: 4.47 µM [inhibitor, partial curve]
S=C(Nc1ccc(Nc2ccccc2)cc1)NC1CCCCCC1 | inactive
C=CC1=C2C=C(C3CC3)N(C3CC3)C=C2C(=O)C(C)(OC(=O)c2ccco2)C1=O (configuration not stated) | inconclusive: 35.5 µM [inhibitor, partial curve]
Cc1ccc(NC(=O)c2nc[nH]c2C(=O)N2CCN(c3ccccc3)CC2)cc1 | inconclusive: 0.1 µM [inhibitor, full curve, poor fit]
CCOC(=O)c1cc2c(=O)n3ccccc3nc2n(Cc2ccco2)c1=NC(=O)c1cccc(Br)c1 | inconclusive: 15.8 µM [inhibitor, partial curve]
CCC(C)C1C(C#N)=C(N)OC2=C1C(=O)CC(C)(C)C2 (configuration not stated) | inconclusive: 1.26 µM [inhibitor, full curve, poor fit]
COc1cc2c(cc1OC)C(c1cc(Br)ccc1F)N(C(=O)CCl)CC2 (configuration not stated) | inconclusive: 39.8 µM [inhibitor, partial curve, poor fit]
COc1cc(C2C(C(=O)Nc3ccccc3C)=C(C)Nc3nc(SCc4cc(C)ccc4C)nn32)ccc1O (configuration not stated) | inconclusive: 0.355 µM [inhibitor, full curve, poor fit]
CCN(CC(=O)c1c(N)n(C)c(=O)n(C)c1=O)c1cccc2ccccc12 | inactive
COC(=O)C1=C(O)/C(=C\c2cc(C)n(-c3ccccc3C)c2C)N=C1C | inactive
Cc1cccc(N2CCN(C(=O)C(C)C)CC2)c1C | inactive
CCOc1ccc2[nH]c3c(NCCC(C)C)ncnc3c2c1 | inactive
Cc1nc(C(N)=O)c(N)n1CCc1ccccc1 | inconclusive: 4.47 µM [inhibitor, partial curve]
Oc1c(/C=C/C=C/C=Nc2ccccc2)sc(=S)n1Cc1ccccc1 | inconclusive: 25.1 µM [inhibitor, partial curve]
Cc1ccc(NC(=O)CSc2ncnc3ccccc23)cc1S(=O)(=O)N1CCOCC1 | inconclusive: 0.251 µM [inhibitor, full curve, poor fit]
O=C(Nc1nc(-c2cc3ccccc3oc2=O)cs1)c1ccco1 | inactive
Cc1cc(OCC(=O)Nc2ccc(C(=O)OC3CCCCC3)cc2)ccc1Cl | inactive

Rewritten with tabs: entries from further up
Compound	Potency
S=C(Nc1ccc(Nc2ccccc2)cc1)NC1CCCCCC1	inactive
C=CC1=C2C=C(C3CC3)N(C3CC3)C=C2C(=O)C(C)(OC(=O)c2ccco2)C1=O (configuration not stated)	inconclusive: 35.5 µM [inhibitor, partial curve]

Later entries:

Compound | Potency
CCN(CC)c1ccc(C2Nc3cccc4cccc(c34)N2)cc1 | inconclusive: 35.5 µM [inhibitor, partial curve]
O=c1cc(-c2ccc(O)cc2)oc2ccc3ccccc3c12 | inactive
COc1ccc(C2(C(=O)Nc3cc(C)on3)CCOCC2)cc1 | inactive
Cc1cc(NS(=O)(=O)c2ccc(NC(=S)Nc3ccc(Cl)cc3C)cc2)no1 | inconclusive: 50.1 µM [inhibitor, partial curve]
CCOc1cc(N2CCOCC2)c(OCC)cc1NC(=O)c1ccccc1C | inactive
CC(C)NC(=O)c1ccc(Cl)cc1Cl | inconclusive: 0.316 µM [inhibitor, full curve, poor fit]
COCCn1cc(-c2csc(N)n2)c2ccccc21 | inconclusive: 35.5 µM [inhibitor, partial curve]
O=C(Cn1c(NCCCO)nc2ccccc21)c1cccs1 | inconclusive: 35.5 µM [inhibitor, single point]
O=C(/C=C/c1ccc(Cl)cc1Cl)n1cccn1 | inactive
O=C(COc1ccccc1Cl)Nc1ccccc1C(=O)NC1CC1 | inconclusive: 39.8 µM [inhibitor, single point]
O=S(=O)(NCc1csc(-c2ccccc2)n1)c1ccccc1 | inactive
COC(=O)c1ccc(-n2c(C)cc(C(=O)COC(=O)CNS(=O)(=O)c3ccc(C)cc3)c2C)cc1 | inconclusive: 22.4 µM [inhibitor, partial curve, poor fit]
O=c1[nH]c(NCCO)c(N=Cc2ccccc2)c(=O)[nH]1 | inconclusive: 44.7 µM [inhibitor, partial curve]
Cc1ccc(S(=O)(=O)N(CC(=O)N2CCC(C(N)=O)CC2)Cc2ccc(F)cc2)cc1 | inconclusive: 44.7 µM [inhibitor, partial curve, poor fit]
COc1cccc(NC(=O)Cn2nc(-c3ccncc3)ccc2=O)c1 | inconclusive: 0.631 µM [inhibitor, full curve, poor fit]
COCCNC(=O)C(c1ccc(F)cc1)N(C(=O)CCC(=O)Nc1ccccn1)c1ccc(C)cc1 (configuration not stated) | inconclusive: 20 µM [inhibitor, partial curve]
COC(=O)c1sc(SC)c2c1CC(C)(C)C/C2=N/O | inconclusive: 5.62 µM [inhibitor, partial curve]
Cc1ccc(C(=O)Nc2cccc(C(F)(F)F)c2)cc1NC(=O)c1csc(-c2ccncc2)n1 | inconclusive: 7.08 µM [inhibitor, partial curve]
O=C1CC(c2ccccc2)(c2ccccc2)c2ccccc21 | inactive
S=C(NCc1ccccc1)N1CCn2cccc2C1c1ccncc1 (configuration not stated) | inconclusive: 15.8 µM [inhibitor, partial curve]
Cc1ccc(-c2noc(N=O)c2NO)cc1 | inconclusive: 0.794 µM [inhibitor, partial curve, poor fit]
CCCCCCc1cc2cc(-c3nnc(-c4ccccc4OC)o3)c(=O)oc2cc1O | active: 14.1 µM
COc1ccccc1CNC(=O)N1CCN(c2ccccc2C)CC1 | inactive

As a working copy, part of the list above.
Compound | Potency
COc1cccc(NC(=O)Cn2nc(-c3ccncc3)ccc2=O)c1 | inconclusive: 0.631 µM [inhibitor, full curve, poor fit]
COCCNC(=O)C(c1ccc(F)cc1)N(C(=O)CCC(=O)Nc1ccccn1)c1ccc(C)cc1 (configuration not stated) | inconclusive: 20 µM [inhibitor, partial curve]
COC(=O)c1sc(SC)c2c1CC(C)(C)C/C2=N/O | inconclusive: 5.62 µM [inhibitor, partial curve]
Cc1ccc(C(=O)Nc2cccc(C(F)(F)F)c2)cc1NC(=O)c1csc(-c2ccncc2)n1 | inconclusive: 7.08 µM [inhibitor, partial curve]

Carrying on:

Compound | Potency
CSc1c(C#N)sc(=S)n1-c1ccc(C)cc1 | inconclusive: 7.08 µM [inhibitor, partial curve, poor fit]
COc1ccc2[nH]c(=O)c(CN(Cc3nnnn3Cc3ccccc3)CC3CCCO3)cc2c1 (configuration not stated) | inconclusive: 31.6 µM [inhibitor, single point]
COc1ccc2nc(Nc3ccc4c(c3)OCO4)sc2c1 | inactive
Cc1ccc2nc(/C(C#N)=C/c3ccc(-c4ccc(C(=O)OC(C)C)cc4)o3)[nH]c2c1 | inconclusive: 39.8 µM [inhibitor, single point]
C/C(=N\NC(=O)C(C)n1nc(C)c([N+](=O)[O-])c1C)c1ccccc1O (configuration not stated) | inactive
O=C(/C=C\c1ccco1)Nc1ccc(N2CCN(C(=O)c3ccccc3)CC2)cc1 | inactive
S=c1[nH]c2cc3ccccc3cc2[nH]1 | inconclusive: 39.8 µM [inhibitor, partial curve, poor fit]
Fc1ccc(-c2nnn3c2nc(NCc2ccccc2)c2ccccc23)cc1 | inconclusive: 5.01 µM [inhibitor, full curve, poor fit]
CC(C)CCNC(=O)Cn1cc(S(=O)(=O)Cc2ccc(F)cc2)c2ccccc21 | inconclusive: 0.224 µM [inhibitor, full curve]
COc1ccc2c(c1)[C@H]1[C@H](CO2)[C@H](c2ccccc2)[C@]2(C)C(=O)Nc3ccc(Cl)cc3C(=O)N12 | inconclusive: 44.7 µM [inhibitor, partial curve, poor fit]
COc1ccc(-c2nc3ccccc3c(=O)n2-c2c(C)n(C)n(-c3ccccc3)c2=O)cc1 | inconclusive: 7.94 µM [inhibitor, partial curve, poor fit]
CC(C)n1nc(C(=O)Nc2nnc(SCc3c(Cl)cccc3Cl)s2)c2ccccc2c1=O | inconclusive: 15.8 µM [inhibitor, partial curve]
Cn1c2c(c3ccccc31)CCN=C2c1ccccc1 | inconclusive: 5.62 µM [inhibitor, full curve]
O=C(Cn1nnc(-c2cccc(C(F)(F)F)c2)n1)NCc1ccc(F)cc1 | inactive
COc1ccc(-c2c(-c3ccccc3OC)oc3ccccc23)cn1 | inconclusive: 2 µM [inhibitor, full curve, poor fit]
CCN(CC(=O)Nc1ccc2c(c1)OCCO2)C(=O)c1ccc([N+](=O)[O-])s1 | inconclusive: 39.8 µM [inhibitor, partial curve]
CC(C)NC(=O)N(C)C[C@@H]1Oc2ccc(NC(=O)CCN3CCOCC3)cc2CC(=O)N([C@@H](C)CO)C[C@@H]1C | inconclusive: 50.1 µM [inhibitor, partial curve]
COC(=O)c1ccc(OCC(=O)N2CCCc3ccccc32)cc1 | inconclusive: 3.16 µM [inhibitor, full curve, poor fit]
CCc1ccc(N(C(=O)c2snc(C(N)=O)c2N)C(C(=O)NC2CCCC2)c2ccco2)cc1 (configuration not stated) | inactive
O=C(c1ccc(Cl)cc1)[C@@H]1[C@@H]2C(=O)N(c3ccc(Cl)cc3)C(=O)[C@@H]2C2c3ccccc3C=NN21 (some centres not stated) | inactive
COc1cccc2cc(-c3nc4ccc(C)cc4[nH]3)c(=O)oc12 | inconclusive: 44.7 µM [inhibitor, partial curve]
